# According to PubChem BioAssay AID588497 (NMMLSC, 2011):
# Out of some 360,000 compounds screened, about 780 (0.22%) were called active. The shares of active, inactive and inconclusive entries below differ from those in the screen. Cut-off read from the data, not from the text of the source: active = inhibition above about 35% (passing the limit was not always enough); inconclusive = no clear call, values can overlap the other calls.
# Tested on: Botulinum neurotoxin type F light chain protease (Clostridium botulinum)
# Assay: BoNT/F light chain protease inhibitors, primary screen, biochemical, flow cytometry, MLPCN library (AID 588497); note: plate controls were buffer without enzyme for full effect and enzyme alone for no effect
# Details: Multiplex microsphere protease cleavage assay, at 10 µM, active compounds read high
row,Compound,inhibition
1,COc1ccc(S(=O)(=O)NNC(=O)Nc2ccc(F)cc2F)c(OC)c1,inactive: -0.3%
2,O=C(NCc1ccc(F)cc1)C1CCN(C(=O)NCc2ccccc2)CC1,inactive: -5.6%
3,CCn1c(SCC(=O)Nc2cccc(OC)c2)nnc1-c1ccc(Cl)cc1,inactive: 3.1%
4,O=C(CCNS(=O)(=O)c1cccc(C(F)(F)F)c1)NCc1ccco1,inactive: 1.8%
5,COc1ccc(CN(C)S(=O)(=O)c2nnc(NC(=O)c3cccc(F)c3)s2)cc1,inactive: -3.6%
6,Cc1cc(C)nc(-n2nc(C)cc2NC(=O)COC(=O)CCC(=O)c2cccs2)n1,inconclusive: 16.9%
7,COc1ccc(C(=O)NCCc2c[nH]c3ccccc23)cc1OC,inconclusive: 18%
8,COCCN(C(=O)CCc1nnc(Cc2c[nH]c3ccccc23)o1)C(C)C,inconclusive: 4.2%
9,CCCCNC(=O)C1c2ccccc2OCC(=O)N1Cc1ccc2c(c1)OCO2 (stereo not drawn),inactive: -7%
10,CC(=O)c1ccccc1OCCCOc1cccc2cccnc12,inconclusive: -14.8%
11,COCCOc1ccc(C(F)(F)F)cc1NC(=O)COC(=O)c1cc([N+](=O)[O-])ccc1N1CCOCC1,inactive: -1.4%
12,Cc1nn(Cc2c(Cl)cccc2Cl)c(C)c1NC(=O)c1cnn2c(C(F)F)cc(-c3ccccc3)nc12,inconclusive: -20.5%
13,CC(C)C1Cc2nc(Cl)c(C#N)cc2CO1 (stereo not drawn),inconclusive: 15.5%
14,O=C(COc1ccc(Cl)cc1)NCc1ccc(F)cc1,inconclusive: 2.6%
15,COc1cc([N+](=O)[O-])ccc1-c1ccc(/C=N/NC(=O)OC(C)(C)C)o1,inconclusive: -196%
16,CCOc1ccc(N2C(=O)CC(C(C)c3ccccc3)C2=O)cc1 (stereo not drawn),inconclusive: 5.8%
17,COc1cccc(-n2c(SCC(N)=O)nc3ccccc3c2=O)c1,inactive: -3.2%
18,Cc1ccc(S(=O)(=O)N2CCN(S(=O)(=O)c3ccc(C)cc3)C3OCCOC32)cc1 (stereo not drawn),inactive: -2%
19,CCOC(=O)C1(CCOc2ccccc2)CCN(Cc2ccc(O)cc2)CC1,inconclusive: 10.7%
20,CCC(C)Sc1nnc(NC(=O)c2ccco2)s1 (stereo not drawn),inconclusive: -4.6%
21,COc1cccc(OC)c1C(=O)N1CCN=C1SCc1cccnc1,inconclusive: -10.2%
22,Cc1cccc(-c2noc(-c3c(C)noc3C)n2)c1,inconclusive: -25.7%
23,Cc1cccc(CCNC(=O)COc2cc(=O)n(C)c3ccccc23)c1,inactive: -17.3%
24,C=CCn1c(C)cc(C(=O)COC(=O)/C=C/c2c(C)nn(C3CCS(=O)(=O)C3)c2Cl)c1C (stereo not drawn),inconclusive: -7.9%

row,Compound,inhibition
1,COC(=O)C(Cc1ccc(OC(=O)c2ccc(C(F)(F)F)cc2)cc1)N1Cc2ccccc2C1=O (stereo not drawn),inconclusive: -25.8%
2,CC(C)(C)c1ccc(CC(=O)N2CCC2(C)C(=O)NCc2cccc3ccccc23)cc1 (stereo not drawn),inactive: -6%
3,O=C(N/N=C/c1ccc(O)c(O)c1)NC12CC3CC(CC(C3)C1)C2,inconclusive: 11%
4,O=C(COC(=O)CC1CCCC1)Nc1ccc(Cl)cn1,inactive: 0.3%
5,Cc1ccc2ccc[n+](Cc3ccccc3)c2c1,inactive: 9.5%
6,COc1ccc2oc(C)c(C(=O)c3ccccc3)c2c1,inconclusive: 7.4%
7,Cc1ccc2c(CN3CCN(Cc4ccccc4)CC3)cc(=O)oc2c1,inconclusive: -3.5%
8,Cc1ccc(C(=O)N/C(=C/c2ccc(-c3ccc([N+](=O)[O-])cc3)o2)C(=O)NCCCN(C)C)cc1,inconclusive: 98.4%
9,Cc1c(/C=N/n2cnnc2)c2ccccc2n1CCOc1ccccc1,inconclusive: -196%
10,C=CCn1c(SCC(=O)Nc2nnc(CC)s2)nnc1-c1ccco1,inconclusive: -39.1%
11,CSCCOC(=O)COc1ccc(/C=N/NC(=O)c2c(Cl)cnn2C)cc1,inconclusive: 35.1%
12,COCCN(C(=O)COC(=O)c1ccc2[nH]c(C)c(C)c2c1)c1c(N)n(Cc2ccccc2)c(=O)[nH]c1=O,inactive: 1.4%
13,CC(C)(C)[C@@H]1C=C(C(N)=O)O[C@H](OCCCCO)C1,inactive: -4.2%
14,Cc1ccc(N=Cc2c(O)c3ccccc3oc2=O)cc1F,inconclusive: -2.5%
15,S=c1[nH]nc(COc2ccc(Cl)cc2)n1-c1ccc(Cl)cc1,inconclusive: -37.4%
16,O=C1/C(=C\c2ccc3c(c2)OCO3)CCC/C1=C/c1ccc2c(c1)OCO2,inactive: -15.4%
17,CC(C)Nc1oc(Cc2cccc3ccccc23)nc1C#N,inactive: 1.1%
18,COc1ccc(OS(=O)(=O)c2c(C)noc2C)cc1,inconclusive: -13.1%
19,O=[N+]([O-])C(/C=C(/Cl)[N+](=O)[O-])=C(N1CCCCC1)N1CCCCC1,inconclusive: -25.6%
20,COCCNC(=O)c1[nH]c(C(F)(F)F)nc1-c1ccccc1,inactive: -8.8%
21,COC(=O)c1ccc(C(=O)OC)nc1,active: 35.4%
22,O=S(=O)(c1ccc(F)cc1)N1CN2CCN(C2)C1,inconclusive: 6%
23,COc1ccc2nc(C)cc(Nc3ccc(C(=O)O)cc3)c2c1,active: 38.6%
24,CC(=C\c1ccccc1)/C=C1/SC(=S)N(C(C(=O)O)C(C)C)C1=O (stereo not drawn),inactive: -7%

row,Compound,inhibition
1,COC(=O)Cc1c(C)c2ccc(OCC(C)=O)c(C)c2oc1=O,inactive: -8.6%
2,CC(=O)NCCC(=O)N(C)CC1CCN(CCc2cccc(C(F)(F)F)c2)CC1,inconclusive: -4.3%
3,CC(=O)c1ccc(NC(=S)N2CCN(c3ccccn3)CC2)cc1,inconclusive: -30.6%
4,Cc1ccc(NC(=O)C(c2ccccc2)N(C)C)cc1Cl (stereo not drawn),inactive: 9.7%
5,CCc1nnc(N/N=C/c2cc(C)c(C)cc2C)n1N,inconclusive: -32.7%
6,CCOCCN(C(=O)c1ccccc1Cl)c1ccccc1,inactive: 1.5%
7,CCCC(C)NC(=O)CSc1nc2ccc(C)cc2[nH]1 (stereo not drawn),inactive: -3.1%
8,Nc1c(Cl)cc(C2=NCCn3c2c2ccccc2[n+]3[O-])cc1Cl,inactive: 3.7%
9,COc1ccc2oc(=N)c(C(=O)Nc3cccc(C)c3C)cc2c1,inconclusive: 4%
10,Cc1ccccc1NC(=O)Cc1nnc(NC(=O)Nc2ccccc2F)s1,inconclusive: -4.9%
11,CC(=O)Nc1ccc(-c2ccnc3c2CC(C)(C(=O)NCCN(C)C)O3)cc1 (stereo not drawn),inactive: -5.9%
12,Cc1cc(C(=O)Nc2nnc(-c3ccccc3)s2)no1,inactive: 1.6%
13,COc1ccc(NC(=O)C2CC(c3ccc(Cl)cc3)=NO2)cc1OC (stereo not drawn),inactive: -18.5%
14,Cc1noc(C)c1CSc1nc2ccccc2c(=O)n1-c1ccc(F)cc1F,inconclusive: -22.5%
15,Cc1ccc(OCCn2cncn2)c([N+](=O)[O-])c1,inconclusive: 3.1%
16,COc1ccc(C(=O)NCCS(=O)(=O)NCc2ccc(F)cc2)cc1,inconclusive: -58.9%
17,COCCNC(=O)C1(C)CCCN(C(=O)c2c(-c3ccccc3)noc2C)C1 (stereo not drawn),inactive: -4.4%
18,CCOc1ccc(N=Cc2c(O)n(-c3cc(C)cc(C)c3)c(=O)[nH]c2=O)cc1,inconclusive: 35.5%
19,CCN(CC)C(=O)C1=C(C)N(CCC2=CCCCC2)C(=O)C(CC(=O)NCc2cccs2)C1 (stereo not drawn),inactive: -1.8%
20,ClCc1nc2ccccc2n1Cc1ccccc1,inconclusive: 18.8%
21,COc1ccc(-c2nn(-c3ccccc3)cc2/C=C2/SC(=S)N(Cc3ccco3)C2=O)c(C)c1,active: 37.4%
22,CC(C)C(=O)Nc1ccc(NC(=O)c2ccc(COc3ccccc3)cc2)cc1,inconclusive: 28.9%
23,O=C(COc1ccc2ccccc2c1)NNC(=O)Cc1cccc2ccccc12,inconclusive: -16.5%
24,CCOc1cc(Cl)c(S(=O)(=O)NCCCN2CCOCC2)cc1Cl,inactive: 15.8%

# Copied from the list.
# Under inhibition, O=C(COC(=O)CC1CCCC1)Nc1ccc(Cl)cn1 shows inactive: 0.3%
# Under inhibition, COc1ccc(C(=O)NCCS(=O)(=O)NCc2ccc(F)cc2)cc1 shows inconclusive: -58.9%
# Under inhibition, Cc1nn(Cc2c(Cl)cccc2Cl)c(C)c1NC(=O)c1cnn2c(C(F)F)cc(-c3ccccc3)nc12 shows inconclusive: -20.5%

# A second format for some results above.
row	Compound	inhibition
3	CC(=O)c1ccc(NC(=S)N2CCN(c3ccccn3)CC2)cc1	inconclusive: -30.6%
4	Cc1ccc(NC(=O)C(c2ccccc2)N(C)C)cc1Cl (stereo not drawn)	inactive: 9.7%

# The list goes on.

row,Compound,inhibition
1,O=[N+]([O-])c1ccc(Nc2nc(N3CCOCC3)nc(N3CCOCC3)n2)cc1,inconclusive: -9.8%
2,CCOC(=O)c1[nH]c(C)c(C(=O)OC)c1C,inconclusive: 58.3%
3,CCC(=O)Nc1nnc(/C=C/c2ccc(OC)cc2)s1,inconclusive: 7.3%
4,C=C(C)CNC(=O)c1ccc(OC2CCN(C(=O)COC)CC2)cc1,inconclusive: -194%
5,C=CCn1c(=O)c2ccccc2n2c(Sc3nnnn3-c3ccccc3)nnc12,inactive: 2.3%
6,COc1ccc(S(=O)(=O)N2CCC[C@H]2C(=O)N2CCC[C@H]2C(=O)NCc2ccncc2)cc1C,inactive: -8.7%
7,CC(C)c1ccccc1OCC(=O)N1CCCCCCC1,inconclusive: -28.6%
8,CC1CN1c1cc2c(c3c1ccn3C)C1CCC2C1 (stereo not drawn),inactive: -13.6%
9,COc1ccc(-c2nnsc2N2C(=O)c3ccccc3C2=O)cc1,inconclusive: 14.3%
10,CCCCOc1ccc(CCC(=O)N/N=C/c2ccco2)cc1,inconclusive: 56.1%
11,CCc1ccc(/C=N\n2cnnc2)cc1,active: 45.4%
12,Cc1cc(N=Nc2ccccc2)cc(C)c1NC(=O)C(F)(F)F,inactive: -3.8%
13,O=S(=O)(Cc1ccccc1Cl)c1ncn[nH]1,inactive: -1.3%
14,Cc1ccc(C(=O)NCc2ccc(F)cc2)s1,inconclusive: 1.3%
15,COC(=O)c1sccc1NC(=O)c1ccco1,active: 36.5%
16,COc1cccc2cc(-c3nc(-c4cccs4)cs3)c(=O)oc12,inactive: -1.7%
17,Cc1ccc(NC(=O)CCc2ccc(C)o2)c(Br)c1,active: 90.9%
18,CCCN(CCC)CC(O)COc1ccccc1C(=O)Nc1ccccc1 (stereo not drawn),inconclusive: -99.7%
19,CC(C)CC(=O)NCCc1ccncc1,inactive: -0.3%
20,CN1C(=O)C2C(c3ccc(N(C)C)cc3)=NN(Cc3ccccc3)C2C1=O (stereo not drawn),inactive: 1.7%
21,Cc1ccc(C(=O)Nc2cccc(NC(=O)c3cccs3)c2)c(C)c1,inconclusive: -19.7%
